According to PubChem BioAssay AID540276 (National Center for Advancing Translational Sciences (NCATS), 2011):
About 5,400 (1.8%) of roughly 300,000 compounds were called active. Inconclusive results, whose numbers are uncertain, are shown with a selection of clear calls. Calls come from the whole dose curve; tested in HEK293 cells. A potency beside an inconclusive call is a rough fit, not a confirmed value.

Assay: qHTS for inhibitors of binding or entry into cells for Marburg Virus
Conditions: Marburg virus pseudotyped entry inhibition, cell reporter; series mostly up to 37.8 µM
Potency is the fitted concentration of half-maximal effect.

Structure (SMILES)	Potency
CCCOc1ccccc1C(=O)Nc1ccc(-c2nc3ccc(C)cc3s2)cc1	inconclusive: 7.08 µM [activator, partial curve, poor fit]
Cc1cccc(Nc2cc(C)nc3nc(Cc4ccc(Cl)cc4)nn23)c1	inconclusive: 3.55 µM [inhibitor, single point]
Clc1ccc2[nH]c(-c3ccccc3)cc2c1	inactive
N#CN(CC(N)=O)c1nc(N2CCCCC2)nc(N2CCCCC2)n1	inconclusive: 1.12 µM [inhibitor, full curve, poor fit]
COc1ccc2ccc3c(c2c1)N=C[C@]1(O3)N(C)c2ccccc2C1(C)C	inconclusive: 14.1 µM [inhibitor, partial curve, poor fit]
Cc1cc(C(=O)N/N=C/c2cc(Br)cc(Br)c2OC(=O)c2cccc(F)c2)n[nH]1	active: 18.3 µM
COc1ccccc1CNN	inactive
N#Cc1nc(/C=C/c2ccc(F)cc2)oc1N1CCCCC1	inactive
COc1ccc(N(C(=O)c2ccccc2OC(C)=O)C(C)C2CC2)cc1 (stereo not given)	inconclusive: 0.0517 µM [inhibitor, full curve, poor fit]
COc1ccc2nc(Sc3c([N+](=O)[O-])nc(C)n3Cc3ccccc3)[nH]c2c1	inconclusive: 25.9 µM [inhibitor, partial curve, poor fit]
COc1ccccc1NC(=O)C(=O)N/N=C/c1cccs1	inconclusive: 5.8 µM [activator, partial curve]
CCOc1cc(C(=O)N2CCN(C/C=C/c3ccccc3)CC2)cc(OCC)c1OCC	inconclusive: 0.103 µM [inhibitor, full curve, poor fit]
COC(CN(C(=O)CCl)C(C(=O)NC1CCCCC1)c1ccc(Cl)cc1)OC (stereo not given)	inconclusive: 25.1 µM [inhibitor, single point]
Cc1cc(OCc2cn3cccnc3n2)ccc1Cl	inconclusive: 0.631 µM [activator, full curve, poor fit]
COc1ccc(C(CNC(=O)c2cccc(NS(=O)(=O)c3ccc(C)c(F)c3)c2)N2CCCC2)cc1 (stereo not given)	inconclusive: 6.31 µM [inhibitor, full curve, poor fit]
C[C@]12CCC(=O)C=C1CC[C@@H]1[C@@H]2C(=O)C[C@@]2(C)[C@H]1CC[C@]2(O)C(=O)CO	inconclusive: 0.0045 µM [activator, full curve, poor fit]
O=C(NCc1ccco1)c1ccc(Cn2c(=O)c3ccccc3n(Cc3cccc(F)c3)c2=O)cc1	inconclusive: 29.1 µM [inhibitor, single point]
CC1CCCCC1NC(=O)CSc1nnc(CC(=O)Nc2ccccc2F)n1C (stereo not given)	inactive
COc1cccc(C(CNC(=O)c2ccc(Cl)c(S(=O)(=O)N3CCCC3)c2)N(C)C)c1 (stereo not given)	inconclusive: 35.5 µM [inhibitor, single point]
CN(/N=C/c1ccc([N+](=O)[O-])o1)c1ccccc1	inactive
CCCOC(=O)c1ccc(NC(=O)Cc2cccs2)cc1	inconclusive: 39.8 µM [activator, partial curve, poor fit]
CC(C)n1cc(/C=C(\C#N)S(=O)(=O)c2ccccc2)c2ccccc21	inconclusive: 0.116 µM [inhibitor, full curve, poor fit]
N#Cc1c[nH]n2c(NC3CCCC3)c(-c3ccc(Br)cc3)nc12	inconclusive: 0.562 µM [inhibitor, full curve, poor fit]

Individual results from the results shown:
In Potency, COc1ccc(N(C(=O)c2ccccc2OC(C)=O)C(C)C2CC2)cc1 (stereo not given) reads inconclusive: 0.0517 µM [inhibitor, full curve, poor fit]
In Potency, CCCOC(=O)c1ccc(NC(=O)Cc2cccs2)cc1 reads inconclusive: 39.8 µM [activator, partial curve, poor fit]

The listing continues:

Structure (SMILES)	Potency
CCOC(=O)C1CCN(c2nc3c(C)cccn3c(=O)c2/C=C(\C#N)S(=O)(=O)c2ccccc2)CC1	inconclusive: 20 µM [inhibitor, partial curve, poor fit]
Cc1ccccc1NC(=O)CSc1nc2ccccc2c(=O)n1C	inactive
CNc1ccccc1C(C)(C)c1cc(-c2cccc(OC)c2)no1	inconclusive: 20 µM [inhibitor, single point]
COC(=O)Nc1ccc(S(=O)(=O)NCc2ccccn2)cc1	inactive
O=C(COC(=O)CC1CCCC1)Nc1cc2c(cc1Cl)C(=O)c1ccccc1C2=O	inconclusive: 0.794 µM [activator, partial curve, poor fit]
O=C1c2ccccc2C(=O)c2c1ccc(C(=O)N1CCCCC1)c2NCCO	inactive
Cc1ccc2nc(N3CC(=O)Nc4ccccc43)nc(-c3ccccc3)c2c1	inconclusive: 10 µM [inhibitor, partial curve, poor fit]
COc1ccc(CNCC(O)(c2ccccc2)c2ccccc2)cc1OC	inconclusive: 15.8 µM [inhibitor, single point]
CC(=O)C1CCN(Cc2ccccc2)CC1	inconclusive: 35.5 µM [activator, partial curve, poor fit]
C/C(=N\Nc1nc(-c2ccccc2O)nc2ccccc12)c1ccccc1	inactive
CN(/N=C/c1ccccc1O)C(=S)c1ccccc1	inconclusive: 35.5 µM [activator, single point]
O=C(ON=C1CCN(S(=O)(=O)c2ccccc2)CC1)c1cccc(Cl)c1	inactive
Cc1ccsc1C(=O)OCC(=O)Nc1c(C)n(C)n(-c2ccccc2)c1=O	inconclusive: 0.891 µM [activator, full curve, poor fit]
O=C(NCc1ccccc1)c1cccc(COc2ccc(Cl)cc2)c1	inconclusive: 0.1 µM [activator, full curve, poor fit]
Oc1ccc(/C=N/Nc2ccccc2)cc1	inactive
CC(C)Cc1nnc(NC(=O)CCC(=O)Nc2ccccc2)s1	inactive
CC1CCc2cc(F)ccc2N1C(=O)CSc1nnc2c3ccccc3n(C)c2n1 (stereo not given)	inactive
O=C(CCS(=O)(=O)Cc1ccccc1)N1CCN(Cc2ccccc2)CC1	inactive
NC(=S)N/N=C/c1cc([N+](=O)[O-])ccc1OCCOc1ccccc1	inactive
Cn1nc(CC#N)c2c(=N)n(N)cnc21	inconclusive: 1.26 µM [inhibitor, single point]
COc1cc(-c2csc(N3CCOCC3)n2)cc(OC)c1OC	inactive
C=CCN(C(=O)CNC(=O)c1ccco1)C(C(=O)NC1CCCCC1)c1ccccc1 (stereo not given)	inconclusive: 15.8 µM [inhibitor, single point]
